Measurements taken from PMC10893700.
Changes are numbered by the printed parent chain. No constants are given. Whether binding was seen depends on the method and setting. Binding seen in cells or lysates may run through a third protein. A result given as binding can be weak or reduced; the word gives no strength. Sequences can lack the tags named with a protein.

Chains of the proteins cited; added tags and fusions are not shown. Lines headed by an entry give the natural chain unless they say otherwise; changes in a name come on top.
UniProt A1ZAX4: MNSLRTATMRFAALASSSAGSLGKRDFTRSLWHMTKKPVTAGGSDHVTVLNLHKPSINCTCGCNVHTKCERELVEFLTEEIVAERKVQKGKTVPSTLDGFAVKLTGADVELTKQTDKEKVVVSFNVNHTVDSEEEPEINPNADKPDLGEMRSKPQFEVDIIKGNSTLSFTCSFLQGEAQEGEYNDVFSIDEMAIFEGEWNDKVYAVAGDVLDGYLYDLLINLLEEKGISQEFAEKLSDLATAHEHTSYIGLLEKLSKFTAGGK

Legend:
Assay in all cases: co-IP; lysate of about 60 Drosophila heads co-expressing hCHCHD2-MYC and dp32-3xHA (GMR-GAL4), RIPA lysis buffer with protease inhibitor, EZview Red Anti-c-Myc Affinity Gel, 2 h at 4 °C; Western blot with anti-HA; n = 3
[1] = target: T1, hCHCHD2-Arg145Gln-MYC (transgenic Drosophila) (human) (UniProt Q9Y6H1)
T1 sequence: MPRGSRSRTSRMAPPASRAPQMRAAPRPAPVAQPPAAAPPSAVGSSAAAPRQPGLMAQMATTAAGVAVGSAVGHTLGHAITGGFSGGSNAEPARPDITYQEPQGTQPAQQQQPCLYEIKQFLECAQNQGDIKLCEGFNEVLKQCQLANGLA

[2] = target: T2, hCHCHD2-Thr61Ile-MYC (transgenic Drosophila) (human) (UniProt Q9Y6H1)
T2 sequence: T1 sequence with T61I, Q145R

[3] = target: T3, wild type hCHCHD2-MYC (transgenic Drosophila) (human) (UniProt Q9Y6H1)
T3 sequence: T1 sequence with Q145R

Measured: binding

dp32-3xHA (from UniProt A1ZAX4)
binds: all assays above
